Values from PubChem BioAssay AID652259 (Drosophila RNAi Screening Center, 2013)

Screen: 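Identify new Wingless signalling regulators in fly cells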 (primary screen)
Cells: Drosophila clone 8 imaginal disc epithelial cells
Reagent: long dsRNA against Drosophila genes
Challenge: pathway stimulated by co-transfected Wingless expression plasmid
Measurement: 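Firefly luciferase from a tcf-site Wingless reporter, measured alongside co-transfected Renilla luciferase that tracks transfection; pathway stimulated by a Wingless plasmid; the firefly-to-Renilla ratio is not deposited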
Scale: firefly reporter light: higher = more Wg reporter light, before normalisation; Renilla control light: higher = more transfected or surviving cells
Rule for the call: 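a knock-down is a candidate when at least two out of four statistical tests show it departing from its plate mean; one test alone signals a weak candidate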
Meaning of the calls: active = candidate regulator (raises or lowers reporter); inactive = not a candidate
The deposit covers about 22,000 reagents; below is a random part of those with a known target gene and a result. In the full data, 233 (1.1%) got an active call. 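Light values are raw, unnormalised plate reads; the ratio scores behind the reporter calls were not deposited.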 The numbers tell different reagents against one gene apart. A plus sign joins genes that one reagent is predicted to hit. Not given: the amount of reagent, the time to read-out, the dose of the treatment.

The opening 2 entries, to show the layout:
Br140 — firefly reporter light, replicate 1 = 9618; Renilla control light, replicate 1 = 1964; activity call = inactive
d-cup — firefly reporter light, replicate 1 = 16984; Renilla control light, replicate 1 = 5179; activity call = inactive

The listing, from the start:
Br140 — firefly reporter light, replicate 1 = 9618; Renilla control light, replicate 1 = 1964; activity call = inactive
d-cup — firefly reporter light, replicate 1 = 16984; Renilla control light, replicate 1 = 5179; activity call = inactive
CG2065 #1 — firefly reporter light, replicate 1 = 4800; firefly reporter light, replicate 2 = 9753; Renilla control light, replicate 1 = 1393; Renilla control light, replicate 2 = 5155; activity call = inactive
CG2065 #2 — firefly reporter light, replicate 1 = 6.07e5; firefly reporter light, replicate 2 = 6.57e5; Renilla control light, replicate 1 = 3.59e5; Renilla control light, replicate 2 = 3.19e5; activity call = inactive
Cpsf73 — firefly reporter light, replicate 1 = 17318; Renilla control light, replicate 1 = 4712; activity call = inactive
CG14313 — firefly reporter light, replicate 1 = 8864; Renilla control light, replicate 1 = 2068; activity call = inactive
LManIII — firefly reporter light, replicate 1 = 1323; firefly reporter light, replicate 2 = 3399; Renilla control light, replicate 1 = 611; Renilla control light, replicate 2 = 2176; activity call = inactive
CG14285 — firefly reporter light, replicate 1 = 15740; Renilla control light, replicate 1 = 3562; activity call = inactive
spz4 — firefly reporter light, replicate 1 = 2294; firefly reporter light, replicate 2 = 5024; Renilla control light, replicate 1 = 674; Renilla control light, replicate 2 = 2901; activity call = inactive
CG3581 — firefly reporter light, replicate 1 = 9651; Renilla control light, replicate 1 = 1972; activity call = inactive
CG33964 + CG13175 #1 — firefly reporter light, replicate 1 = 4612; Renilla control light, replicate 1 = 2381; activity call = inactive
CG33964 + CG13175 #2 — firefly reporter light, replicate 1 = 4496; Renilla control light, replicate 1 = 1672; activity call = inactive
CG33964 + CG13175 #3 — firefly reporter light, replicate 1 = 6544; Renilla control light, replicate 1 = 2597; activity call = inactive
Fife #1 — firefly reporter light, replicate 1 = 13692; Renilla control light, replicate 1 = 4145; activity call = inactive
Fife #2 — firefly reporter light, replicate 1 = 5706; Renilla control light, replicate 1 = 2170; activity call = inactive
Fife #3 — firefly reporter light, replicate 1 = 5874; Renilla control light, replicate 1 = 2429; activity call = inactive
Kpc2 — firefly reporter light, replicate 1 = 5680; Renilla control light, replicate 1 = 1917; activity call = inactive
